Data as given in PubChem BioAssay AID1224830 (NIAID, 2016).

- Screen: 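Host factors that control LPS-induced TNF expression in human macrophages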 (primary screen)
- Cells: human THP-1 monocytic leukaemia cells, TNF dual-luciferase reporter clone, PMA-differentiated to macrophage-like cells
- Reagent: siRNA pool against human genes, 50 nM
- Duration: LPS for 4 h, given about 3 days after siRNA transfection
- Conditions: bacterial LPS (TLR4 ligand), 10 ng/ml
- Measured: 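Ratio of firefly to renilla light, scaled to the plate median and expressed as a robust z-score per replicate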
- Reading the numbers: TNF reporter robust z-score: higher = stronger TNF reporter response to LPS
- Hit rule: 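Each well counts as active if its z-score is over 2.8 or under -1.5; controls are left without a call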
In all, the deposit lists about 18,000 reagents; shown is a random part of them. About 2,900 of all reagents (16%) count as active. 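Calls are made per well; low scores hint the gene aids the LPS response, high scores that it dampens it.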 Repeated entries: four replicate wells of each siRNA pool.

| target gene | TNF reporter robust z-score | Call |
| --- | --- | --- |
| SDC3 | -1.11 | inactive |
| SDC3 | -0.68 | inactive |
| SDC3 | 0.48 | inactive |
| SDC3 | -0.21 | inactive |
| PCOTH | 0.22 | inactive |
| PCOTH | 1.11 | inactive |
| PCOTH | 0.49 | inactive |
| PCOTH | 0.25 | inactive |
| CXorf66 | -0.98 | inactive |
| CXorf66 | -0.57 | inactive |
| CXorf66 | -0.44 | inactive |
| CXorf66 | 0.27 | inactive |
| COX18 | -1.31 | inactive |
| COX18 | -0.77 | inactive |
| COX18 | -0.76 | inactive |
| COX18 | -0.44 | inactive |
| TEAD2 | -0.56 | inactive |
| TEAD2 | 0.33 | inactive |
| TEAD2 | 1.11 | inactive |
| TEAD2 | 1.71 | inactive |
| ARHGAP11B | 1.14 | inactive |
| ARHGAP11B | 1.84 | inactive |
| ARHGAP11B | 1.58 | inactive |
| ARHGAP11B | 0.07 | inactive |
| MPP3 | 1.32 | inactive |
| MPP3 | 0.89 | inactive |
| MPP3 | 1.3 | inactive |
| MPP3 | 3.03 | active |
| ADAD1 | -0.49 | inactive |
| ADAD1 | -0.68 | inactive |
| ADAD1 | -0.35 | inactive |
| ADAD1 | 0.08 | inactive |
| MESP1 | -0.12 | inactive |
| MESP1 | -0.02 | inactive |
| MESP1 | 0.04 | inactive |
| MESP1 | 0.56 | inactive |
| PIMREG | – | inactive |
| PIMREG | -0.68 | inactive |
| PIMREG | -0.53 | inactive |
| PIMREG | -0.85 | inactive |
| PIMREG | -1.15 | inactive |
| SNRNP200 | -0.42 | inactive |
| SNRNP200 | -0.6 | inactive |
| SNRNP200 | 0.06 | inactive |
| SNRNP200 | 0.34 | inactive |
| MBD4 | -0.62 | inactive |
| MBD4 | 0.52 | inactive |
| MBD4 | 0.08 | inactive |
| MBD4 | 0.4 | inactive |
| CT47A1 | 0.42 | inactive |
| CT47A1 | 3.57 | active |
| CT47A1 | 5.18 | active |
| CT47A1 | 3.88 | active |
| RORB | 0.32 | inactive |
| RORB | 0.63 | inactive |
| RORB | -0.3 | inactive |
| RORB | -0.02 | inactive |
| TPCN1 | -1.68 | active |
| TPCN1 | -0.21 | inactive |
| TPCN1 | -0.46 | inactive |
| TPCN1 | 2.23 | inactive |
| TPRA1 | 0.73 | inactive |
| TPRA1 | 1.16 | inactive |
| TPRA1 | 0.74 | inactive |
| TPRA1 | 2.28 | inactive |
| ARHGEF19 | -1.28 | inactive |
| ARHGEF19 | -1.11 | inactive |
| ARHGEF19 | -1.07 | inactive |
| ARHGEF19 | -0.63 | inactive |
| TPT1P8 | 1.48 | inactive |
| TPT1P8 | 0.83 | inactive |
| TPT1P8 | -0.78 | inactive |
| TPT1P8 | -0.42 | inactive |
| TTC32 | -0.86 | inactive |
| TTC32 | 0.27 | inactive |
| TTC32 | -0.68 | inactive |
| TTC32 | 0.83 | inactive |
| GZF1 | -1.05 | inactive |
| GZF1 | -0.76 | inactive |
| GZF1 | -0.66 | inactive |
| GZF1 | -1.25 | inactive |
| ZNF257 | 2.62 | inactive |
| ZNF257 | 2.31 | inactive |
| ZNF257 | 0.31 | inactive |
| ZNF257 | 0.37 | inactive |
| SLC26A6 | -0.09 | inactive |
| SLC26A6 | -0.13 | inactive |
| SLC26A6 | -1.05 | inactive |
| SLC26A6 | 2.06 | inactive |
| PSD3 | 0.59 | inactive |
| PSD3 | 2.08 | inactive |
| PSD3 | 0.17 | inactive |
| PSD3 | 0.75 | inactive |
| MATK | 0.39 | inactive |
| MATK | 0.34 | inactive |
| MATK | 1.35 | inactive |
| UGT8 | 0.88 | inactive |
| UGT8 | 1.17 | inactive |
| UGT8 | 0.22 | inactive |
| UGT8 | 0.76 | inactive |
| AKAP3 | 0.23 | inactive |
| AKAP3 | 0.43 | inactive |
| AKAP3 | 0.91 | inactive |
| AKAP3 | 0.41 | inactive |
| MED28 | 0.47 | inactive |
| MED28 | -0.59 | inactive |
| MED28 | -0.33 | inactive |
| MED28 | 0.14 | inactive |
| CCDC144BP | -0.65 | inactive |
| CCDC144BP | 0.19 | inactive |
| CCDC144BP | -0.32 | inactive |
| CCDC144BP | 1.07 | inactive |
